Test results reported in paper PMC11150407.
No constants are given. Whether binding was seen depends on the method and setting. In cells and extracts the contact can be indirect. Some entries that bind do so weakly or less than the wild type.

Chains of the proteins cited; added tags and fusions are not shown. Lines headed by an entry give the natural chain unless they say otherwise; changes in a name come on top. A line that says so, or that is headed by a name, gives the form on record, which may keep a tag or linker.
MECOM (EVI1) ORF expressed in 293T cells (Q03112, form named): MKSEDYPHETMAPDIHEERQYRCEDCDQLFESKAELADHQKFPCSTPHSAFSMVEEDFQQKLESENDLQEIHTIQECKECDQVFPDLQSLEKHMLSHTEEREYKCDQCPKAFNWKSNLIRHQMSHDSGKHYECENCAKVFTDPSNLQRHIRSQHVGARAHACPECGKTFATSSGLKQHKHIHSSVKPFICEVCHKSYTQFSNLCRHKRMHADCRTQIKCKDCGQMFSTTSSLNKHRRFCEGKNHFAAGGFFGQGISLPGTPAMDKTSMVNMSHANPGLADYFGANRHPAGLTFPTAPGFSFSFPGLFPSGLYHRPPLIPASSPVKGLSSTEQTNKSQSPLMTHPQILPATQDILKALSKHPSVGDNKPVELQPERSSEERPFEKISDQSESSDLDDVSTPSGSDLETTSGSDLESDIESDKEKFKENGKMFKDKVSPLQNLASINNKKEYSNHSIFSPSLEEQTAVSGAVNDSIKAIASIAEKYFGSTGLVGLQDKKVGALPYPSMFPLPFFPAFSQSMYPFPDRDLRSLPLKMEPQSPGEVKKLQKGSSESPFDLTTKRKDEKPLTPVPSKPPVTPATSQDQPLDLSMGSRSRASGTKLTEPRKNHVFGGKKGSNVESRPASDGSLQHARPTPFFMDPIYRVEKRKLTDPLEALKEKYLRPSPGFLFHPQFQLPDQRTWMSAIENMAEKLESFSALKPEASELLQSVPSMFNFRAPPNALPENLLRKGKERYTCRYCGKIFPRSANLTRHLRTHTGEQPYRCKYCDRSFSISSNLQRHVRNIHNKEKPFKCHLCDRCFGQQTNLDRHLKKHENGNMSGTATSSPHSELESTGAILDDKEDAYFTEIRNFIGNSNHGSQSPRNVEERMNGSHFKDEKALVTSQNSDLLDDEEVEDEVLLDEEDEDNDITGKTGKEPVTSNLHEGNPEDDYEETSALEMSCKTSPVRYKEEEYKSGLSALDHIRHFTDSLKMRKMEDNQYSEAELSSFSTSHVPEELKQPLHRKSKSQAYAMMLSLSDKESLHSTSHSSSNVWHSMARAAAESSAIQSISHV

Biological target: MECOM (EVI1) ORF expressed in 293T cells (UniProt Q03112)
Assay: co-IP; 293T cells transfected with MECOM or PA2G4 ORF vectors, 48 hr after transfection, processed as the endogenous co-IP

B1: PA2G4 ORF expressed in 293T cells (protein, UniProt Q9UQ80 1-394)
chain: MSGEDEQQEQTIAEDLVVTKYKMGGDIANRVLRSLVEASSSGVSVLSLCEKGDAMIMEETGKIFKKEKEMKKGIAFPTSISVNNCVCHFSPLKSDQDYILKEGDLVKIDLGVHVDGFIANVAHTFVVDVAQGTQVTGRKADVIKAAHLCAEAALRLVKPGNQNTQVTEAWNKVAHSFNCTPIEGMLSHQLKQHVIDGEKTIIQNPTDQQKKDHEKAEFEVHEVYAVDVLVSSGEGKAKDAGQRTTIYKRDPSKQYGLKMKTSRAFFSEVERRFDAMPFTLRAFEDEKKARMGVVECAKHELLQPFNVLYEKEGEFVAQFKFTVLLMPNGPMRITSGPFEPDLYKSEMEVQDAELKALLQSSASRKTQKKKKKKASKTAENATSGETLEENEAGD
- binding: binds
